Laboratory results: PMC10656286
Results are given in words; binding and its absence hold for the method and conditions named. In cells and extracts the contact can be indirect. Some binding calls cover weakened binding; strength is not graded here. For part of these data: Where a sequence is shown, tags or fusion partners need not be part of it.

By UniProt entry, the sequences of proteins in these tests, tags left out.
UniProt O00571: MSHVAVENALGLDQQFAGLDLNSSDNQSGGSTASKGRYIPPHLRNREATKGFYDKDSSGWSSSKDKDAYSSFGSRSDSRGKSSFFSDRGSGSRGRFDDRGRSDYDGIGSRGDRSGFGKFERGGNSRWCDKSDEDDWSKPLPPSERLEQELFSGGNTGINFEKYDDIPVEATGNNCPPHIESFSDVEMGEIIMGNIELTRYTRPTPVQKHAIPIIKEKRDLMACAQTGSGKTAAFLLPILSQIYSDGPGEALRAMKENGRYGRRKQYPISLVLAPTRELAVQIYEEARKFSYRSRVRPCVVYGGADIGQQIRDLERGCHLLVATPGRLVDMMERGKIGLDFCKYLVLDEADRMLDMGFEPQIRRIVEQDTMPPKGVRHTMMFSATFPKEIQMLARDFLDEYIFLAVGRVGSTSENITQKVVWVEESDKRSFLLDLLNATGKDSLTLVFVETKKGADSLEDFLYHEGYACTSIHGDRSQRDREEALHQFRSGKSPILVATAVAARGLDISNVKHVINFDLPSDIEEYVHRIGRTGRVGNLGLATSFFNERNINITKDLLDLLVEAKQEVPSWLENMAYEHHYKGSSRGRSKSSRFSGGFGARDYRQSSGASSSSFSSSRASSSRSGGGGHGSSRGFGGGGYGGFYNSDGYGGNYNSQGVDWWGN

What was measured:
[1] = target: KLHL29 (endogenous, MDA-MB-231) (human (endogenous in MDA-MB-231)) (UniProt Q96CT2); experiment: co-IP; endogenous proteins in MDA-MB-231 cells
Flag-KLHL29 = Flag-KLHL29 (UniProt Q96CT2); experiment: co-IP; HEK293T cells transfected with tagged plasmids; whole-cell lysates immunoprecipitated with anti-tag antibody (anti-Flag or anti-Myc), western blotting
[2] = target: T1, Flag-KLHL29 fragment M4 (Kelch domain, amino acids 585-875) (UniProt Q96CT2); experiment: as above
T1 sequence: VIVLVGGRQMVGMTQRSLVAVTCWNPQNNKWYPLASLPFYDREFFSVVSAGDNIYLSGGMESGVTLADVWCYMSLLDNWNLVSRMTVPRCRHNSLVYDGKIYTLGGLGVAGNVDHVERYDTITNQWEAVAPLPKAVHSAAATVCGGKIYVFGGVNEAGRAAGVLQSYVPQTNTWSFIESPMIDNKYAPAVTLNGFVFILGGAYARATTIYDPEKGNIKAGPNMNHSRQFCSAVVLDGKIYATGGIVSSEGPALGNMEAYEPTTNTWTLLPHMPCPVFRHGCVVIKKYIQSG

Row | binding [1] | binding (Flag-KLHL29) | binding [2] | Substance
1 | binds | – | – | DDX3X (endogenous, MDA-MB-231) (from UniProt O00571 1-662)
2 | – | binds | binds | Myc-DDX3X (from UniProt O00571 1-662)
